The record followed here is PubChem BioAssay.

Some of the results follow. Results with a measured potency or affinity are listed apart. Entries without a call are filed as inconclusive in the source.

The nature of test [1]: Drosophila SCA1 whole organism dose response for polyglutamine toxicity reduction (AID 1595). The conditions noted are these: Drosophila SCA1 polyglutamine model, at 1 µM, stronger effect = higher value.
A short description of the next test: PubChem AID 1597. The conditions noted are these: Drosophila SCA1 polyglutamine model, at 1 µM, stronger effect = higher value.

With `NC(N)=O`, the suppression of toxicity in test [1] worked out at 7.14; in the test “PubChem AID 1597” it was 8.57.
With `Nc1nc2c(ncn2COCCO)c(=O)[nH]1`, the suppression of toxicity in test [1] was determined as 4.29; in “PubChem AID 1597” it was 7.86.
Consider `CC(C)(C)NC[C@@H](O)COc1nsnc1N1CCOCC1`, for which the suppression of toxicity in test [1] is 5.71; in the test “PubChem AID 1597”, 8.57.
Taken in the same sequence, the figures for `CC(C)(C)CC(C)(C)c1ccc(O)c(Cc2ccc(Cl)cc2Cl)c1` were 0 and 10.
On to `O=c1cc(-c2ccccc2)oc2cc(O)cc(O)c12`, for which the suppression of toxicity came out at 1.43 in test [1] and 2.86 in the test “PubChem AID 1597”.
For the compound `O=c1c(O)c(-c2ccc(O)c(O)c2)oc2cc(O)cc(O)c12`, the values for the suppression of toxicity (in test [1]; in “PubChem AID 1597”) were 8.57 and 5, respectively.
Turning to `O=C1c2ccccc2C(=O)C1c1ccccc1`, the results for the suppression of toxicity (in test [1]; in “PubChem AID 1597”) were 4.29 and 12.1, respectively.
For `CC(C)NCC(O)c1ccc(O)c(O)c1` (centres undefined), the results for the suppression of toxicity (in test [1]; in “PubChem AID 1597”) were 0 and 4.3, respectively.
For the compound `COc1ccc2c(c1)c(CC(=O)O)c(C)n2C(=O)c1ccc(Cl)cc1`, the suppression of toxicity came out at 1.43 in test [1] and 4.29 in “PubChem AID 1597”.
For the compound `OCCS`, the suppression of toxicity is 2.86 in test [1] and 4.29 in the test “PubChem AID 1597”.
Turning to `CC(=O)Oc1ccc2c(c1)CCC1C2CCC2(C)C(=O)CCC12` (centres undefined), the suppression of toxicity in test [1] amounted to 2.85; in the test “PubChem AID 1597” it was 0.
With `CC(=O)Nc1ccc(OC(=O)c2ccccc2O)cc1`, the suppression of toxicity (in test [1]; in the test “PubChem AID 1597”) was 2.86 throughout.
For the compound `CN1C2CC(OC(=O)[C@H](CO)c3ccccc3)C[C@H]1[C@H]1OC21` (some centres undefined), the suppression of toxicity in test [1] stood at 0; in “PubChem AID 1597”, 2.15.
Consider `OCCN1CCN(CCCN2c3ccccc3Sc3ccc(Cl)cc32)CC1`, for which the suppression of toxicity (in test [1]; in “PubChem AID 1597”) was 1.43 throughout.
For `CC(C)(S)C(N)C(=O)O` (centres undefined), the suppression of toxicity in test [1] is 2.86; in “PubChem AID 1597”, 4.29.
Taken in the same sequence, the figures for `NC[C@H]1O[C@H](O[C@H]2[C@H](O)[C@@H](O[C@H]3O[C@H](CO)[C@@H](O)[C@H](N)[C@H]3O)[C@H](N)C[C@@H]2N)[C@H](O)[C@@H](O)[C@@H]1O` were 4.29 and 7.14.
Regarding `CCN(CC)CCNc1ccc(CO)c2sc3ccccc3c(=O)c12`, the suppression of toxicity came to 0 in test [1] and 12.9 in “PubChem AID 1597”.
With `CC(=O)Nc1ccc(S(=O)(=O)Nc2ccc([N+](=O)[O-])cc2)cc1`, the suppression of toxicity amounted to 0 in test [1] and 0.715 in “PubChem AID 1597”.
For `O=c1cc(-c2ccccc2)oc2cc(O)c(O)cc12` the same measures were 1.43 and 4.29.
For `CCCCN(CCCC)CCCOC(=O)c1ccc(N)cc1`, the suppression of toxicity in test [1] is 0; in the test “PubChem AID 1597”, 1.43.
Consider `CC(=O)N[C@@H](Cc1c[nH]c2ccccc12)C(N)=O`, for which the suppression of toxicity in test [1] was determined as 1.43; in the test “PubChem AID 1597”, 11.4.
Regarding `N[C@@H]1CONC1=O`, the values for the suppression of toxicity (in test [1]; in “PubChem AID 1597”) were 4.29 and 6.42, respectively.
On to `COc1ccc(NS(=O)(=O)c2ccc(N)cc2)nn1`, for which the suppression of toxicity in test [1] worked out at 0; in the test “PubChem AID 1597”, 5.
In the case of `O=C(O)c1cc(=O)c2c(OCC(O)COc3cccc4oc(C(=O)O)cc(=O)c34)cccc2o1`, the suppression of toxicity in test [1] was 1.43; in “PubChem AID 1597” it was 4.29.
With `Nc1ccc(S(=O)(=O)Nc2nccs2)cc1`, the suppression of toxicity (in test [1]; in “PubChem AID 1597”) was 1.43 throughout.
For `CCn1cc(C(=O)O)c(=O)c2cnc(N3CCNCC3)nc21`, the figures for the suppression of toxicity (in test [1]; in “PubChem AID 1597”) were 1.43 and 7.86, respectively.
Take `CN(C)CCC=C1c2ccccc2CCc2ccccc21`: the values for the suppression of toxicity (in test [1]; in “PubChem AID 1597”) were 4.29 and 8.57, respectively.
`CC(=O)NO`: the suppression of toxicity (in test [1]; in “PubChem AID 1597”) was 7.14 in each case.
As for `CN(C)CCOC(c1ccc(Cl)cc1)c1ccccn1` (centres undefined), the suppression of toxicity came out at 1.43 in test [1] and 5.71 in the test “PubChem AID 1597”.
For `COc1ccc(CN(CCN(C)C)c2ncccn2)cc1`, the figures for the suppression of toxicity (in test [1]; in “PubChem AID 1597”) were 0 and 8.57, respectively.
As to `Cc1ncc([N+](=O)[O-])n1CCO`, the suppression of toxicity was 2.86 in test [1] and 7.14 in the test “PubChem AID 1597”.
Regarding `CN1C[C@H](C(=O)N[C@]2(C)O[C@@]3(O)[C@@H]4CCCN4C(=O)[C@H](Cc4ccccc4)N3C2=O)C[C@@H]2c3cccc4[nH]cc(c34)C[C@H]21`, the results for the suppression of toxicity (in test [1]; in the test “PubChem AID 1597”) were 1.43 and 2.86, respectively.
As for `CN1C2CC[C@H]1CC(OC(=O)C(O)c1ccccc1)C2` (some centres undefined), the suppression of toxicity in test [1] came out at 4.29; in the test “PubChem AID 1597”, 7.14.
With `CN1C2CCC1CC(OC(=O)C(CO)c1ccccc1)C2` (centres undefined), the suppression of toxicity was found to be 0 in test [1] and 4.29 in the test “PubChem AID 1597”.
For `CCC[C@@H]1C[C@@H](C(=O)NC(C(C)Cl)C2O[C@H](SC)[C@H](O)[C@@H](O)[C@H]2O)N(C)C1` (some centres undefined), the suppression of toxicity in test [1] amounted to 1.43; in “PubChem AID 1597”, 2.15.
For `CC1(C)S[C@@H]2[C@H](NC(=O)Cc3ccccc3)C(=O)N2[C@H]1C(=O)O` the same measures were 2.85 and 5.71.
In the case of `COc1cc(C(=O)NCc2ccc(OCCN(C)C)cc2)cc(OC)c1OC`, the suppression of toxicity was 7.14 in test [1] and 5.71 in “PubChem AID 1597”.
Take `CC1(C)O[C@@H]2CC3C4CCC5=CC(=O)CCC5(C)C4(F)C(O)CC3(C)[C@]2(C(=O)CCl)O1` (some centres undefined): the suppression of toxicity stood at 0 in test [1] and 2.85 in the test “PubChem AID 1597”.
Taken in the same sequence, the figures for `Nc1ccc(C(=O)O)cc1` were 2.85 and 17.1.
In the case of `CC(=O)Nc1ccc(OCC(O)CNC(C)C)cc1` (centres undefined), the suppression of toxicity in test [1] is 0; in “PubChem AID 1597” it was 2.15.
Take `CCN(Cc1ccncc1)C(=O)C(CO)c1ccccc1` (centres undefined): the suppression of toxicity (in test [1]; in “PubChem AID 1597”) was 0 throughout.
For the compound `CC(C)NCC(O)c1ccc2ccccc2c1` (centres undefined), the results for the suppression of toxicity (in test [1]; in “PubChem AID 1597”) were 18.6 and 22.9, respectively.
Consider `CC(NCCC(c1ccccc1)c1ccccc1)c1ccccc1` (centres undefined), for which the suppression of toxicity stood at 1.43 in test [1] and 7.86 in “PubChem AID 1597”.
For `CCOC(=O)CCCCCCCCCCCCC1C=CCC1` (centres undefined) the same measures were 0 and 3.58.
Regarding `CCC[C@@H]1C[C@@H](C(=O)N[C@H]([C@H]2O[C@H](SC)[C@H](O)[C@@H](O)[C@H]2O)[C@H](C)O)N(C)C1`, the results for the suppression of toxicity (in test [1]; in the test “PubChem AID 1597”) were 2.86 and 5, respectively.
For `CN1CCc2c(c3ccccc3n2Cc2ccccc2)C1` the same measures were 4.29 and 5.71.
Taken in the same sequence, the figures for `CC1(C)C2CC[C@]3(C)C(C(=O)C=C4[C@@H]5C[C@@](C)(C(=O)O)CC[C@]5(C)CC[C@]43C)[C@@]2(C)CC[C@@H]1OC(=O)CCC(=O)O` (some centres undefined) were 0 and 0.
